Reference: the supplement of paper PMC10849652
This is one part of the list.

Chains of the proteins cited; added tags and fusions are not shown. Lines headed by an entry give the natural chain unless they say otherwise; changes in a name come on top.
UniProt P22830: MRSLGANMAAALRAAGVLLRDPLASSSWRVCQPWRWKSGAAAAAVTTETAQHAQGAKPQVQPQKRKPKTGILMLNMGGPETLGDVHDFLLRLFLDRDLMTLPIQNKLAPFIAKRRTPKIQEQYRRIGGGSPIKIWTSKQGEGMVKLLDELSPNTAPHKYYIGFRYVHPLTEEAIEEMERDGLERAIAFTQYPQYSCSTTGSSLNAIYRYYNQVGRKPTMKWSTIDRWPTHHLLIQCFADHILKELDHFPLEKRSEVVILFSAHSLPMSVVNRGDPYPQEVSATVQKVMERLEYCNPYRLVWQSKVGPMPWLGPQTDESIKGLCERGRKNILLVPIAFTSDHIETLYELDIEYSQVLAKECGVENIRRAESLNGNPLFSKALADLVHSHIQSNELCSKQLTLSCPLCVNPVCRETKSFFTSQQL
UniProt Q9UK97: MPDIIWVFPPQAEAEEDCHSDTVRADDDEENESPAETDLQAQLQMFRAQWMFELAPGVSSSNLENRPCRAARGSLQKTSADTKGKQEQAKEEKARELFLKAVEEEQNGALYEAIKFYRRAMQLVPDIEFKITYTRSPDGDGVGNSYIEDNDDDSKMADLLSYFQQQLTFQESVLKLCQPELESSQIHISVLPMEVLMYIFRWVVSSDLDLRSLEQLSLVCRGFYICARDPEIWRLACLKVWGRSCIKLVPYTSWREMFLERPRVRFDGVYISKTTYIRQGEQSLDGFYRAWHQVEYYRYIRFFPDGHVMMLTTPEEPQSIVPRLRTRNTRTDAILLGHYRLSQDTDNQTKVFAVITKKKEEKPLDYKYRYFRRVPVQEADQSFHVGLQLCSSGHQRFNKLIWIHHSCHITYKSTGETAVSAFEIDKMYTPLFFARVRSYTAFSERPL
UniProt P26885: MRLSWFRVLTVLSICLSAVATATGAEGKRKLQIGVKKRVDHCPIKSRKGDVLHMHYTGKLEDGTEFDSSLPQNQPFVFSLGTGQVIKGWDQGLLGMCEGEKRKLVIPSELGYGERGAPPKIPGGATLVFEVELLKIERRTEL
UniProt Q9Y285: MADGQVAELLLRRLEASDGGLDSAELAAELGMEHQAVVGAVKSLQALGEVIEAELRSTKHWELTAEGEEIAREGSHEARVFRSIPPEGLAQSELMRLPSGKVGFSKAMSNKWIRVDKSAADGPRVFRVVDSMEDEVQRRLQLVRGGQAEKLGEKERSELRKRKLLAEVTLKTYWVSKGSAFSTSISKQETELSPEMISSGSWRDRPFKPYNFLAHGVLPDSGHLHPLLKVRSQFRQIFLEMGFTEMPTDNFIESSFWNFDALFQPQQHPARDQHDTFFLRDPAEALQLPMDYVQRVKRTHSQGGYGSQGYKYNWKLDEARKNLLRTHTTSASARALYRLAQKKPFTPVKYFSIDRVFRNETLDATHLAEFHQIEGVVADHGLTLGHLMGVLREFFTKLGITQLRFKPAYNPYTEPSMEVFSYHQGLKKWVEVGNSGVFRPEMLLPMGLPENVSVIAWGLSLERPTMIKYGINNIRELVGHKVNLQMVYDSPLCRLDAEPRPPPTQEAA
UniProt Q9NVK5: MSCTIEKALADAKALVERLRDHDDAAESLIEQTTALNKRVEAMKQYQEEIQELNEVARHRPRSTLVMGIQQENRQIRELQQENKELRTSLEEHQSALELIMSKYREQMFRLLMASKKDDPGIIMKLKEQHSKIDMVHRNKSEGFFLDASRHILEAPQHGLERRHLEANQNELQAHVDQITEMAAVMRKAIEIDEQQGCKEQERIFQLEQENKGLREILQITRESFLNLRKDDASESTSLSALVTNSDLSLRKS
UniProt Q13643: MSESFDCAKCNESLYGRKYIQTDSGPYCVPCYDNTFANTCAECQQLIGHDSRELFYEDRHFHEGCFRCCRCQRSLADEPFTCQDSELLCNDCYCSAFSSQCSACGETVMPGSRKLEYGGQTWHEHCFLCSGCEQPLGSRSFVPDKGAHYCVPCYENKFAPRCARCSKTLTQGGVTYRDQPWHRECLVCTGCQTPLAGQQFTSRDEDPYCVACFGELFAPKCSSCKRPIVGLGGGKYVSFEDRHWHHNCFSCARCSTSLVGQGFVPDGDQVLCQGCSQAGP
UniProt Q9NSD9: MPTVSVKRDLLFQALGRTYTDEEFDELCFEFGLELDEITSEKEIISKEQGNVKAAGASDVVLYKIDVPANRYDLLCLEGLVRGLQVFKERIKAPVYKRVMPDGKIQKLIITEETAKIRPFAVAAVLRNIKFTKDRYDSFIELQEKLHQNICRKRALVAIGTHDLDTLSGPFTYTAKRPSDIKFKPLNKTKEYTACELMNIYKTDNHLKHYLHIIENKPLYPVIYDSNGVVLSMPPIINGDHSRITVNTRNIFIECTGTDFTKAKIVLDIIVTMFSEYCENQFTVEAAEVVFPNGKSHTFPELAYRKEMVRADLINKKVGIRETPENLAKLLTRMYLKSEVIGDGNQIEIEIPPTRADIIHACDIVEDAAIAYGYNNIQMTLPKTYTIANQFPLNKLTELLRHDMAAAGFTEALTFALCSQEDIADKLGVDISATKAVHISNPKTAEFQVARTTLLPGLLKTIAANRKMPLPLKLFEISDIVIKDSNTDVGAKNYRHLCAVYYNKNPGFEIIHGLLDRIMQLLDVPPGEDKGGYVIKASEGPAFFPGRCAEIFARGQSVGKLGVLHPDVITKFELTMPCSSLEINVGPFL
UniProt Q9UK99: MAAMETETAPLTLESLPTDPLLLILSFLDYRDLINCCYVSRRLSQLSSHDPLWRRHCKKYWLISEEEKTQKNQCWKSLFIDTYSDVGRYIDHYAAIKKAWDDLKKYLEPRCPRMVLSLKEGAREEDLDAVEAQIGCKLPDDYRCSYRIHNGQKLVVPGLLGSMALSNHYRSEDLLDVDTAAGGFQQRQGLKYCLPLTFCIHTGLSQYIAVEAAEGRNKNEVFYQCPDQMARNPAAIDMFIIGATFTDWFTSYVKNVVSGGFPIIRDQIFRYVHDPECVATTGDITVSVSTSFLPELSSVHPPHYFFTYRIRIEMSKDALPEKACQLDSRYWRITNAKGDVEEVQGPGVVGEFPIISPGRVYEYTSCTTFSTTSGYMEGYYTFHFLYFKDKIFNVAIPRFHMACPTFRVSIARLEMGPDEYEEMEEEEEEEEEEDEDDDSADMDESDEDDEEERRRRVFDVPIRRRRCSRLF
UniProt P10109: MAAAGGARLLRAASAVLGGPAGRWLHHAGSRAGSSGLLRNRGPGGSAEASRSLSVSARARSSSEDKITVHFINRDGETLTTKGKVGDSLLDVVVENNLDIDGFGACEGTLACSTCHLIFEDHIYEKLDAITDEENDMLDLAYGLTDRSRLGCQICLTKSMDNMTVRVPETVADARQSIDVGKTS
UniProt Q7L8L6: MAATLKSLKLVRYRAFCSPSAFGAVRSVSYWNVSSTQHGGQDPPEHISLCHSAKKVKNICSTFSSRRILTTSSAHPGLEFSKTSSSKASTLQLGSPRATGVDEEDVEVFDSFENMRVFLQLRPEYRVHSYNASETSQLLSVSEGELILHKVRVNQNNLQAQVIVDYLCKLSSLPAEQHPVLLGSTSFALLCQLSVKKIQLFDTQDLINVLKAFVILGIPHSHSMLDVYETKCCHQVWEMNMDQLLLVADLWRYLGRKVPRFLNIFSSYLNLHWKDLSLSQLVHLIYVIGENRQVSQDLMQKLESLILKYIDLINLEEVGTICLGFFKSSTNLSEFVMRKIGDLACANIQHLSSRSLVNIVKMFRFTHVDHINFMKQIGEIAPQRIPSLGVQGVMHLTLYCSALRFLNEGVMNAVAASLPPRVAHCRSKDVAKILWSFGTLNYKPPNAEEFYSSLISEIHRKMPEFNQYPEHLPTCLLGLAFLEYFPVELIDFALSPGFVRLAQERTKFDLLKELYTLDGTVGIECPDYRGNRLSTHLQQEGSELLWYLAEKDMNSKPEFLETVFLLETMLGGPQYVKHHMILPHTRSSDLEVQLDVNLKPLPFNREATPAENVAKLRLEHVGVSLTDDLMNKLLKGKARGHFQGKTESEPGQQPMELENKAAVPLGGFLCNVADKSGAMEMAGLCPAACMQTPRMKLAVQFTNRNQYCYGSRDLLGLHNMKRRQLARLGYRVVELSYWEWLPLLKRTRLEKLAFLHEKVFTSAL
UniProt O43427: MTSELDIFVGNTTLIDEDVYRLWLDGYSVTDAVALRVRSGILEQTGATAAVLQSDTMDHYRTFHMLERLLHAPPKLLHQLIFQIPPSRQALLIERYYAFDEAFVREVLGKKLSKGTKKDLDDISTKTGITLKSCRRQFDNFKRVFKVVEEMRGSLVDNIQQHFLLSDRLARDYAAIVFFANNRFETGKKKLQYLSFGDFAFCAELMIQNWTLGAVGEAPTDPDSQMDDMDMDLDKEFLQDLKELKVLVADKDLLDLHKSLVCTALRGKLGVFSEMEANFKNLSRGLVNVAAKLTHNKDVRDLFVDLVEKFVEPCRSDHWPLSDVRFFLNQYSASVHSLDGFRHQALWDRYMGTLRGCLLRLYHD
UniProt O75063: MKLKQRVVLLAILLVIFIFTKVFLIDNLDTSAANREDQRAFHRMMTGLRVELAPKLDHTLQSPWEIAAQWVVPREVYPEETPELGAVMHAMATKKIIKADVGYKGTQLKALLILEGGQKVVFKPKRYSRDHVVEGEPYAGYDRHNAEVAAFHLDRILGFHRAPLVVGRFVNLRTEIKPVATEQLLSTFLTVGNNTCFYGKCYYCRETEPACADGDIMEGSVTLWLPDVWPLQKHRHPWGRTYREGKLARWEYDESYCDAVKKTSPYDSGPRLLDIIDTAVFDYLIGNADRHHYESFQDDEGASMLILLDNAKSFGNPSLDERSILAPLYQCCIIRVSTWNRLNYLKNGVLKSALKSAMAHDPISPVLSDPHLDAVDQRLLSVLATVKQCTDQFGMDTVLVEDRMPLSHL
UniProt Q9Y613: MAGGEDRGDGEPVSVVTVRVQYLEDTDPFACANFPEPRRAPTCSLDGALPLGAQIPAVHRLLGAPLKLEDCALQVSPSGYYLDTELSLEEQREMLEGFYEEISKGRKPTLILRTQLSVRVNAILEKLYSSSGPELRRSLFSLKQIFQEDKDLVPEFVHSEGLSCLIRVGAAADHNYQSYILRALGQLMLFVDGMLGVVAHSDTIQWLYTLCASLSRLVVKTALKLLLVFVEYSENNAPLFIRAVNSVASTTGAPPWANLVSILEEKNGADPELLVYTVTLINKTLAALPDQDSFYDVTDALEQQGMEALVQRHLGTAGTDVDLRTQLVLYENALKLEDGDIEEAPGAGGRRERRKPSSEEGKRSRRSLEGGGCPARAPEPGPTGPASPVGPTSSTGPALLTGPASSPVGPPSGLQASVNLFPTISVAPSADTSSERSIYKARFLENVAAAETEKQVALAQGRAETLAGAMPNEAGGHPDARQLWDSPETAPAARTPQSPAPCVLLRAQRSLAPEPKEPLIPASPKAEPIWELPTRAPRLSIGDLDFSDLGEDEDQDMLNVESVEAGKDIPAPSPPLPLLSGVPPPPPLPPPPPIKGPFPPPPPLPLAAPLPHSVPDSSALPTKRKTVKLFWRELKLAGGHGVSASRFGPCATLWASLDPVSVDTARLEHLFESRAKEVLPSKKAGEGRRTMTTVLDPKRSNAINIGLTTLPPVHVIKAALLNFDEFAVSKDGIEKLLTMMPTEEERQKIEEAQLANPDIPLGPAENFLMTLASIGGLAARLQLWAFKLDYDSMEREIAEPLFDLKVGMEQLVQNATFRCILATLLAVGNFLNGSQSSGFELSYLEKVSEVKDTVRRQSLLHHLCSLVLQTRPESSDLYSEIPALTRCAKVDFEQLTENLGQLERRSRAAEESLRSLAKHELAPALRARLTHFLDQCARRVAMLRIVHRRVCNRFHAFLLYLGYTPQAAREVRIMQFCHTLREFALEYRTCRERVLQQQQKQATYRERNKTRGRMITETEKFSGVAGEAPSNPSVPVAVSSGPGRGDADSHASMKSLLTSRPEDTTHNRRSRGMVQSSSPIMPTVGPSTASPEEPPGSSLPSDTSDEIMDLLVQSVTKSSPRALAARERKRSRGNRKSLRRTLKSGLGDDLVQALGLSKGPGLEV
UniProt Q9UKT4: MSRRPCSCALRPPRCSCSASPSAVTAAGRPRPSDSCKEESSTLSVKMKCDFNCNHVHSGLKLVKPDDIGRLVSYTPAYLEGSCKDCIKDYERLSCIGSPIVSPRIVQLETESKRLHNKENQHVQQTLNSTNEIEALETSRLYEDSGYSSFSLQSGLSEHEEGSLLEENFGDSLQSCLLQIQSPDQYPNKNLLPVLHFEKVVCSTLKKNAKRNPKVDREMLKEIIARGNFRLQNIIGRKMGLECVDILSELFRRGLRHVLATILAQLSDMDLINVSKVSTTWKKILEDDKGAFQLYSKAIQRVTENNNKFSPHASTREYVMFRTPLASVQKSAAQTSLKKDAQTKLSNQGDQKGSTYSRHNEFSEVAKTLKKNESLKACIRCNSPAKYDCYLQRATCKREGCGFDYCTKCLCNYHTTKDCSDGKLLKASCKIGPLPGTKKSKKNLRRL

Experiments:
Test in all cases: log2 fold change, soluble protein after heating vs DMSO (PISA); higher = thermal stabilisation; K562 cells, 10 uM, 30 min; active = over 0.2 and 3.5 SD of the protein, either way, in both replicates (recomputed)
[1] = compound: C1=CC=C(C=C1)[C@H](COC2=CC3=C(C=C2)NC(=O)N3)NC(=O)C4=CC=CN(C4=O)CC5=CC(=C(C=C5)F)F
Procedure, shortened: (§1)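 K562 cells at 2×10^6 cells/mL were given 10 μM compound for 30 min. Aliquots then went through 3 min of heating across 48°C-58°C, were pooled, and were extracted in PBS with 0.5% NP-40 at 4°C, and the supernatant after 21,000xg for 90 min was quantified by TMTpro 16plex LC-MS/MS with channel sums equalised. Thermal stability relative to control samples, from duplicates, is given as log2 fold change.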

[2] = compound: CC1=C(SC2=C1C(=N[C@H](C3=NN=C(N32)C)CC(=O)N)C4=CC=C(C=C4)Cl)C
Procedure, shortened: as §1

[3] = compound: CC1=C2C(=CC=C1)N=C(N(C2=O)C3=CC=CC=C3C)CN4C=NC5=C(N=CN=C54)N
Procedure, shortened: as §1

[4] = compound: Cc1sc2c(c1C)C(c1ccc(Cl)cc1)=N[C@@H](CC(=O)OC(C)(C)C)c1nnc(C)n1-2
Procedure, shortened: as §1

[5] = compound: c1ccc([C@@H]2C[C@H]2NC2CCNCC2)cc1
Procedure, shortened: as §1

Measured: log2 fold change

FASN (UniProt P49327)
inactive: [1] -0.051 | [2] 0.063 | [3] 0.026 | [4] -0.021 | [5] -0.037

FDXR isoform 7 (UniProt P22570)
inactive: [1] -0.069 | [2] 0.106 | [3] 0.038 | [4] -0.037 | [5] -0.01

FECH isoform 2 (UniProt P22830)
inactive: [1] 0.008 | [2] 0.03 | [3] 0.023 | [4] -0.07 | [5] -0.08

FBXO9 (UniProt Q9UK97)
inactive: [1] -0.011 | [2] 0.23 | [3] 0.016 | [4] 0.161 | [5] 0.07

FKBP2 (UniProt P26885)
inactive: [1] 0.042 | [2] 0.027 | [3] 0.072 | [4] -0.041 | [5] -0.018

FAM98A (UniProt Q8NCA5)
inactive: [1] 0.028 | [2] -0.12 | [3] -0.109 | [4] 0.199 | [5] 0

FIP1L1 (UniProt Q6UN15)
inactive: [1] 0.045 | [2] -0.073 | [3] -0.017 | [4] 0.064 | [5] 0.076

FANCI (UniProt Q9NVI1)
inactive: [1] -0.071 | [2] 0.028 | [3] 0.109 | [4] -0.008 | [5] -0.037

FAM234A (UniProt Q9H0X4)
inactive: [1] 0.03 | [2] 0.118 | [3] -0.031 | [4] -0.019 | [5] -0.046

FAM8A1 (UniProt Q9UBU6)
inactive: [1] -0.036 | [2] 0.067 | [3] 0.001 | [4] 0.053 | [5] 0.032

FBXO42 (UniProt Q6P3S6)
inactive: [1] -0.022 | [2] 0.017 | [3] 0.094 | [4] 0.141 | [5] 0.077

FGB (UniProt P02675)
inactive: [1] -0.15 | [2] 0 | [3] 0.149 | [4] 0.029 | [5] -0.195

FARSA (UniProt Q9Y285)
inactive: [1] -0.021 | [2] 0.035 | [3] 0.062 | [4] 0.012 | [5] -0.04

Pulled one by one from above, two records:
FAM8A1 (UniProt Q9UBU6)
inactive: [1] -0.036 | [2] 0.067 | [3] 0.001 | [4] 0.053 | [5] 0.032

FANCI (UniProt Q9NVI1)
inactive: [1] -0.071 | [2] 0.028 | [3] 0.109 | [4] -0.008 | [5] -0.037

Next results:

FGFR1OP2 (UniProt Q9NVK5)
inactive: [1] 0.022 | [2] 0.006 | [3] 0.091 | [4] 0.079 | [5] -0.028

FHL3 (UniProt Q13643)
inactive: [1] 0.039 | [2] 0.018 | [3] -0.014 | [4] -0.01 | [5] 0.019

FKBPL (UniProt Q9UIM3)
inactive: [1] -0.025 | [2] 0.031 | [3] 0.054 | [4] -0.016 | [5] 0.028

FARSB (UniProt Q9NSD9)
inactive: [1] -0.017 | [2] 0.021 | [3] 0.028 | [4] 0.019 | [5] -0.005

FBXO3 (UniProt Q9UK99)
inactive: [1] 0.006 | [2] -0.03 | [3] 0.033 | [4] 0.055 | [5] 0.127

FDX1 (UniProt P10109)
inactive: [1] -0.046 | [2] -0.042 | [3] -0.021 | [4] 0.012 | [5] -0.002

FASTKD5 (UniProt Q7L8L6)
inactive: [1] -0.32 | [2] 0.014 | [3] 0.105 | [4] -0.122 | [5] 0.155

FIBP (UniProt O43427)
inactive: [1] 0.091 | [2] 0.152 | [3] 0.042 | [4] -0.105 | [5] -0.011

FAM20B (UniProt O75063)
inactive: [1] 0.056 | [2] 0.048 | [3] 0.058 | [4] -0.007 | [5] -0.024

FHOD1 (UniProt Q9Y613)
inactive: [1] -0.033 | [2] -0.065 | [3] 0.086 | [5] -0.034

FBXO7 (UniProt Q9Y3I1)
inactive: [1] -0.002 | [2] 0.033 | [3] 0.045 | [4] -0.033 | [5] 0.024

FAM49B (UniProt Q9NUQ9)
inactive: [1] -0.012 | [2] 0.036 | [3] 0.075 | [4] -0.026 | [5] -0.001

FBXO5 (UniProt Q9UKT4)
inactive: [1] -0.027 | [2] 0.002 | [3] 0.02 | [4] -0.019 | [5] 0.002

FCF1 (UniProt Q9Y324)
inactive: [3] -0.362 | [4] 0.248
